Assay results reported in article PMC10951978 (RSC Advances, 2024).

Test system: KU812
Assay: CCK8 antiproliferative assay, KU812
Type: cell-based
Settings: Homo sapiens, KU812, 48 h, read-out: Antiproliferative activity (IC50/μM) KU812

With `O=C(CCCCCCC(=O)Nc1ccccc1)NO` [SAHA, vorinostat, reference compound] the IC50 was 1 ± 0.11 µM.
